# In the supplement of paper PMC12889115:
# This is one part of the list. These are raw signals, not scaled to a control.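 In the initial screen, polymyxin B was used at a concentration that permeabilizes Salmonella's outer membrane but not its inner membrane. Maximum growth was set by DMSO wells with or without polymyxin B. Since plates varied, data were ranked per plate, and compounds giving the lowest OD600 advanced as hits.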
# System: Salmonella enterica serovar Typhimurium SL1344
# Assay: bacterial growth OD600 after 18 h with compound and polymyxin B; higher = more bacterial growth (less inhibition)
# Conditions: 50 µM, Mueller-Hinton broth
Structure (SMILES),bacterial growth OD600 (polymyxin B 1 µg/mL),bacterial growth OD600 (polymyxin B 0.75 µg/mL)
CCOC(=O)C1(Cc2ccc(F)cc2)CCCN(C(=O)c2cccc(OC)c2)C1 (configuration not stated),0.631,–
Cc1ccc(Oc2ncccc2CNC(=O)[C@H]2C[C@@H]3C=C[C@H]2C3)cn1,0.893,–
O=C(NCc1cccnc1)c1ccc(N2CCC(NCC(c3ccccc3)c3ccccc3)CC2)cc1,–,0.717
COc1ccc(OCc2nc(C(=O)N(C)Cc3nc(C)cs3)co2)cc1,0.899,–
C=CCC(O)(CC=C)C(C)NC(=O)CCC1(Cc2cc(OC)ccc2F)CCC(=O)N1 (configuration not stated),–,0.851
CN(Cc1ccccc1Cl)C(=O)c1coc(COc2ccc3c(c2)OCO3)n1,0.649,–
CCc1ccc(CN(C)c2nncc(-c3cc4ccccc4o3)n2)nc1,0.007,–
O=C(/C=C/c1ccco1)N1CC[C@@H](N2CCN(c3ccccc3F)CC2)[C@H](O)C1,0.827,–
CN(CCn1ccnc1)C(=O)CC(c1ccccc1)c1ccccc1Cl (configuration not stated),0.855,–
Cc1cc(CN(C)C(=O)c2cc(Cn3c(C)nc4ccccc43)[nH]n2)on1,1.05,–
CSCCCNC(=O)C1CCC(=O)N(Cc2ccccn2)C1 (configuration not stated),0.85,–
CC(=O)N1CCN(c2ccc(-c3nc(CCCc4ccccc4)no3)cn2)CC1,–,0.229
Cc1[nH]c2ccc(CNC3CCN(Cc4ccccn4)CC3)cc2c1C,–,0.96
CCOC(=O)C1(CCCc2ccccc2)CCCN(C(=O)c2cc(C)nc(C)n2)C1 (configuration not stated),1.09,–
O=C(NCCc1ccco1)c1ccc2nc(C3CCCCC3)oc2c1,–,0.664
O=C(NC1CCCC1)c1ccc(N2CCC(NCc3cnn(-c4ccccc4)n3)CC2)cc1,–,0.01

Structure (SMILES),bacterial growth OD600 (polymyxin B 1 µg/mL),bacterial growth OD600 (polymyxin B 0.75 µg/mL)
O=S(=O)(NCC1CCCN(Cc2cc[nH]n2)C1)c1cccc2cccnc12 (configuration not stated),–,1.01
Cc1c(C(=O)NCc2ccc(N3CCOCC3)cc2)oc2c(F)cccc12,–,0.064
CCN(Cc1ccc(COC)o1)CC1CCCN(CCc2cccc(F)c2)C1 (configuration not stated),0.874,–
CC(C)C1CC(C(=O)NCCN2Cc3ccccc3OC(c3ccsc3)C2)CCO1 (configuration not stated),–,0.722
COc1ccc(CC2(CCC(=O)NCCc3ccc(Cl)cc3)CCC(=O)N2)c(F)c1 (configuration not stated),–,0.928
Cc1cc(C(=O)NC2CC(=O)N(CC3CCCCC3)C2)nc(C)n1 (configuration not stated),1.1,–
Cc1ccccc1C(CC(=O)N1CCC(O)CC1)c1ccccc1 (configuration not stated),0.891,–
CCOC(=O)c1csc(CCNC(=O)CCC2(Cc3ccc(OC)cc3F)CCC(=O)N2)n1 (configuration not stated),–,0.761
CSCCC(=O)N1CCC2(CCCN(Cc3ccc(F)c(F)c3)C2=O)C1 (configuration not stated),0.997,–
CN1CCCC1CCNC(=O)C1(N2CCCCC2)Cc2ccccc2C1 (configuration not stated),–,0.845
CC(O)CNC(=O)c1ccc(OC2CCN(CCc3ccccc3)CC2)cc1 (configuration not stated),1.29,–
CCn1cc(CN2CCOc3ccc(C4=Cc5ccccc5C4)cc3C2)c(C)n1,–,0.004
Cc1nn(C)cc1CN1CCOc2ccc(C3=Cc4ccccc4CC3)cc2C1,–,0.004
COCCCN1C(=O)CC(CC(=O)NCC2(c3ccccc3)CCOCC2)(c2ccccc2)C1=O (configuration not stated),–,0.863
CCCCN(C)C(=O)CC1C(=O)NCCN1Cc1ccc(OC)c(OC)c1 (configuration not stated),–,0.856
CCOC(=O)C1(CCc2ccccc2)CCCN(Cc2ccc(OC)c(O)c2)C1 (configuration not stated),–,0.914

# Among those listed so far, 5 have a furan ring, fused or not.
Structure (SMILES),bacterial growth OD600 (polymyxin B 1 µg/mL),bacterial growth OD600 (polymyxin B 0.75 µg/mL)
CCc1ccc(CN(C)c2nncc(-c3cc4ccccc4o3)n2)nc1,0.007,–
O=C(/C=C/c1ccco1)N1CC[C@@H](N2CCN(c3ccccc3F)CC2)[C@H](O)C1,0.827,–
O=C(NCCc1ccco1)c1ccc2nc(C3CCCCC3)oc2c1,–,0.664
Cc1c(C(=O)NCc2ccc(N3CCOCC3)cc2)oc2c(F)cccc12,–,0.064
CCN(Cc1ccc(COC)o1)CC1CCCN(CCc2cccc(F)c2)C1 (configuration not stated),0.874,–
